# Experimental data from patent US12427134B2, “Methods of reducing the risk of cardiovascular events in a subject with atrial fibrillation and/or atrial flutter” (priority 2019, dated 2025).
# For at least one compound, name, drawing or mass did not settle the structure.
# How the values were obtained:
# [1] = test system: hypertriglyceridemic patients with cardiovascular disease or at high risk for cardiovascular disease; assay: REDUCE-IT: time to first occurrence of adjudicated cardiovascular endpoint events (primary, key secondary, other secondary, tertiary; sensitivity and landmark analyses); assay type: in vivo
# From the text: The following study, also referred to as the REDUCE-IT clinical trial, was a large cardiovascular (CV) outcome trial designed to assess CV risk reduction benefit of AMR101 treatment (commercially known as VASCEPA®) versus placebo on the 5-point primary composite endpoint: CV death, non-fatal stroke, non-fatal myocardial infarction (MI), coronary revascularizations, or unstable angina requiring hospitalization.
# A multi-center, prospective, randomized, double-blind, placebo-controlled, parallel-group study was performed to evaluate the effect of AMR101 (4 g per day) on cardiovascular health and mortality in hypertriglyceridemic patients with cardiovascular disease or at high risk for cardiovascular disease. The intended expanded indication of the study was treatment with AMR101 as an add-on to statin therapy to reduce the risk of cardiovascular events in patients with clinical cardiovascular disease or with multiple risk factors for cardiovascular disease.
# The primary objective of this study was, in patients at LDL-C goal while on statin therapy, with established cardiovascular disease (CVD) or at high risk for CVD, and hypertriglyceridemia (e.g., fasting triglycerides (TG) ≥200 mg/dL and <500 mg/dL), to evaluate the effect of AMR101 4 g daily on time from randomization to first occurrence of any component of the composite of the following major CV events: CV death; nonfatal MI; (including silent MI; electrocardiograms (ECGs) were performed annually for the detection of silent MIs); nonfatal stroke; coronary revascularization; and unstable angina determined to be caused by myocardial ischemia by invasive/non-invasive testing and requiring emergent hospitalization.
# The key secondary objective of this study was to evaluate the effect of AMR101 4 g daily on the time from randomization to the first occurrence of the composite of following major CV events: CV death, nonfatal MI (including silent MI), and nonfatal stroke.
# Other secondary objectives for this study were to evaluate the effect of therapy on time from randomization to the first occurrence of the following individual or composite endpoints: composite of CV death or nonfatal MI (including silent MI); fatal or nonfatal MI (including silent MI); non-elective coronary revascularization represented as the composite of emergent or urgent classifications; CV death; unstable angina determined to be caused by myocardial ischemia by invasive/non-invasive testing and requiring emergent hospitalization; fatal or nonfatal stroke; composite of total mortality, nonfatal MI (including silent MI), or nonfatal stroke; and total mortality.
# The key tertiary objectives for this study were to evaluate the effect of AMR101 4 g daily from baseline and percent change from baseline in fasting triglycerides and LDL-C. […]
# [2] = test system: hypertriglyceridemic patients with cardiovascular disease or at high risk for cardiovascular disease; assay: REDUCE-IT: subgroup analyses of the primary and key secondary endpoints; assay type: in vivo, human; details: ITT
# Description: Exploratory Subgroup Analyses: Analyses of the effects that patients off study drug and withdrawn from study have on the primary endpoint were performed. Subgroup analyses of the primary and key secondary endpoints were performed as described for the primary endpoint. For each subgroup, Kaplan-Meier estimates, the log-rank test stratified by stratification factors used at randomization (except where the subgroup was a stratification factor), and HRs and CIs from the Cox proportional hazards model as specified for the primary efficacy endpoint, were summarized by treatment group. Demographic, disease, treatment, and baseline lipid and lipoproteins parameters were explored.
# Demographic parameters included: Gender; age at baseline (<65 years and ≥65 years); race (white and nonwhite, or any other subset with at least 10% of the total number of patients); geographical region (Westernized, Eastern European, and Asia Pacific countries); and baseline ezetimibe use (yes/no). […]
# A Cox proportional hazard (PH) model as mentioned above but additionally with baseline TG as a covariate were fitted to the data at each interim. Diagnostic plots for the PH assumption were evaluated. The consistency of the treatment effects in subgroups was assessed for the primary and key secondary efficacy endpoints. […]
# [3] = tertiary endpoint, first occurrence, ITT
smiles,measurement,setting,value
"CC/C=C\C/C=C\C/C=C\C/C=C\C/C=C\CCCC(=O)OCC [AMR101, eicosapentaenoic acid ethyl ester]","Coronary Revascularization, events n/N","[1]; clinically adjudicated arrhythmia sequelae, composite of emergent, urgent, elective, salvage, safety population",376/4089
same,"Sudden Cardiac Death, events n/N","[1]; clinically adjudicated arrhythmia sequelae, safety population",61/4089
same,"Coronary Revascularization, patients with event n/N","[1]; composite of emergent, urgent, elective, salvage, first occurrence, ITT",376/4089
same,"Cardiac Arrhythmia Requiring Hospitalization of ≥24 Hours, patients with event n/N",[1]; [3],188/4089
same,"Sudden Cardiac Death, patients with event n/N",[1]; [3],61/4089
same,"Primary endpoint, patients with event n/N",[2]; Baseline HbA1c ≥6.5%,325/1791
same,"Primary endpoint, patients with event n/N","[2]; Males, Highest tertile for baseline TG and lowest tertile for baseline HDL-C (No)",202/1114
